Measurements reported in PubChem BioAssay AID504764 (Drosophila RNAi Screening Center, 2011).

Purpose: 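Genome-wide screen for regulators of Notch-driven gene expression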 (primary screen)
System: Drosophila Kc167 cells
Knock-down reagent: long dsRNA against Drosophila genes
Time to read-out: about 5 days (4 days dsRNA, then 24 h after transfection)
Challenge: transfection of constitutively active membrane-tethered Notch lacking the extracellular domain, read 24 h later
Read-out: 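Light from a Notch-responsive E(spl)m3 luciferase reporter under active Notch, with control-promoter and no-Notch reporter wells to normalise; raw counts from paired wells a and b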
Direction: induced reporter light, run 1, well a and induced reporter light, run 1, well b: higher = more light from the Notch target reporter with active Notch; control promoter light, run 1, well a and control promoter light, run 1, well b: higher = more light from the viral control promoter (cell number, transfection, viability); uninduced reporter light, run 1, well a: higher = more light from the Notch target reporter without active Notch
Rule for the call: 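Wells with low control signal or poorly matching duplicates excluded; duplicates averaged; per source plate, z beyond ±2 for induced/control log2 ratio or beyond ±1.8 for induced/uninduced marks a hit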
Calls: active = modifier hit (raised or lowered Notch signal); inactive = not a hit
The screen tested about 22,000 reagents; below is an unselected part of those with a known target gene and a result. Of all reagents, 403 (1.9%) got an active call. 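Unnormalised raw counts per well; ratio z-scores behind the hit calls and whether each hit raises or lowers signal are not deposited.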 Names joined by + are all predicted targets of the reagent. Not stated in the record: the amount of reagent.

gene knocked down	amplicon	induced reporter light, run 1, well a	induced reporter light, run 1, well b	control promoter light, run 1, well a	control promoter light, run 1, well b	uninduced reporter light, run 1, well a	Outcome
Dark	DRSC05922	99710	99090	1.98e5	2.06e5	8328	inactive
CG14297	DRSC14776	1.83e5	1.63e5	1.83e5	1.69e5	11215	inactive
Aven	DRSC19693	1.08e5	84915	1.27e5	1.17e5	7085	inactive
sn	DRSC18834	1.48e5	1.65e5	2.50e5	2.26e5	10795	inactive
caps	DRSC11333	1.52e5	1.34e5	2.17e5	1.70e5	6215	inactive
Rbp9	DRSC00416	2.80e5	1.79e5	2.27e5	2.70e5	13740	inactive
Rbp9	DRSC00779	1.13e5	1.25e5	96405	1.00e5	14510	inactive
CG6707	DRSC10697	1.56e5	1.04e5	1.50e5	1.40e5	7610	inactive
CG42496 + Ppcdc	DRSC03886	76075	80250	72840	81950	7770	inactive
CG9702	DRSC16540	1.15e5	1.04e5	1.71e5	1.92e5	10485	inactive
Eaat1	DRSC03321	1.70e5	1.97e5	88095	1.11e5	25260	inactive
D12	DRSC03311	2.53e5	2.90e5	2.38e5	2.66e5	19115	inactive
CG12517	DRSC02173	1.07e5	1.24e5	73310	1.07e5	15805	inactive
Nxf3	DRSC21749						inactive
CG17359	DRSC10265	2.08e5	1.87e5	2.64e5	2.21e5	7065	inactive
NimB4	DRSC01884	2.10e5	2.15e5	2.31e5	1.99e5	19615	inactive
CG34187 (retired record)	DRSC05543	1.74e5	2.25e5	2.72e5	3.01e5	17705	inactive
CG3803	DRSC04420	1.85e5	1.85e5	1.63e5	1.50e5	12055	inactive
CG34047 (retired record)	DRSC07857	2.10e5	1.83e5	2.75e5	2.38e5	18365	inactive
CG34039	DRSC09318	1.75e5	1.74e5	1.94e5	2.18e5	19725	inactive
Idgf1	DRSC03349	1.76e5	1.59e5	1.55e5	1.66e5	14475	inactive
Map60	DRSC07464	1.35e5	1.57e5	1.37e5	1.28e5	12350	inactive
CG30471	DRSC07096	1.05e5	1.09e5	2.02e5	2.40e5	9975	inactive
CG33144	DRSC06132	52260	44510	22550	24230	5750	inactive
CG33144	DRSC07024	1.87e5	2.14e5	2.06e5	2.40e5	14915	inactive
Dnaaf5	DRSC13032	75770	92870	1.02e5	1.22e5	7745	inactive
sad	DRSC16630	30255	31005	37695	24435	2040	inactive
STUB1	DRSC03282	1.40e5	1.66e5	95820	80630	18635	inactive
CG17580	DRSC06683	82425	84880	1.07e5	1.04e5	8110	inactive
CG12133	DRSC06108	2.54e5	2.30e5	2.56e5	2.60e5	19680	inactive
NtR	DRSC04628	58795	37230	34645	49490	1595	inactive
bru2	DRSC01246	1.22e5	1.27e5	1.16e5	1.21e5	9010	inactive
bru2	DRSC01247	31575	30355	8130	7800	9605	inactive
bru2	DRSC01249	1.26e5	1.10e5	1.45e5	1.43e5	8305	inactive
bru2	DRSC01250	77890	71270	86875	85015	7888	inactive
bru2	DRSC02557	11580	12365	15200	11865	2745	inactive
